## Percent effect of library compounds

Amino acid sequences for entries named in this document (tags omitted). Residues count along the entry.
UniProt I6X8D2, whole entry: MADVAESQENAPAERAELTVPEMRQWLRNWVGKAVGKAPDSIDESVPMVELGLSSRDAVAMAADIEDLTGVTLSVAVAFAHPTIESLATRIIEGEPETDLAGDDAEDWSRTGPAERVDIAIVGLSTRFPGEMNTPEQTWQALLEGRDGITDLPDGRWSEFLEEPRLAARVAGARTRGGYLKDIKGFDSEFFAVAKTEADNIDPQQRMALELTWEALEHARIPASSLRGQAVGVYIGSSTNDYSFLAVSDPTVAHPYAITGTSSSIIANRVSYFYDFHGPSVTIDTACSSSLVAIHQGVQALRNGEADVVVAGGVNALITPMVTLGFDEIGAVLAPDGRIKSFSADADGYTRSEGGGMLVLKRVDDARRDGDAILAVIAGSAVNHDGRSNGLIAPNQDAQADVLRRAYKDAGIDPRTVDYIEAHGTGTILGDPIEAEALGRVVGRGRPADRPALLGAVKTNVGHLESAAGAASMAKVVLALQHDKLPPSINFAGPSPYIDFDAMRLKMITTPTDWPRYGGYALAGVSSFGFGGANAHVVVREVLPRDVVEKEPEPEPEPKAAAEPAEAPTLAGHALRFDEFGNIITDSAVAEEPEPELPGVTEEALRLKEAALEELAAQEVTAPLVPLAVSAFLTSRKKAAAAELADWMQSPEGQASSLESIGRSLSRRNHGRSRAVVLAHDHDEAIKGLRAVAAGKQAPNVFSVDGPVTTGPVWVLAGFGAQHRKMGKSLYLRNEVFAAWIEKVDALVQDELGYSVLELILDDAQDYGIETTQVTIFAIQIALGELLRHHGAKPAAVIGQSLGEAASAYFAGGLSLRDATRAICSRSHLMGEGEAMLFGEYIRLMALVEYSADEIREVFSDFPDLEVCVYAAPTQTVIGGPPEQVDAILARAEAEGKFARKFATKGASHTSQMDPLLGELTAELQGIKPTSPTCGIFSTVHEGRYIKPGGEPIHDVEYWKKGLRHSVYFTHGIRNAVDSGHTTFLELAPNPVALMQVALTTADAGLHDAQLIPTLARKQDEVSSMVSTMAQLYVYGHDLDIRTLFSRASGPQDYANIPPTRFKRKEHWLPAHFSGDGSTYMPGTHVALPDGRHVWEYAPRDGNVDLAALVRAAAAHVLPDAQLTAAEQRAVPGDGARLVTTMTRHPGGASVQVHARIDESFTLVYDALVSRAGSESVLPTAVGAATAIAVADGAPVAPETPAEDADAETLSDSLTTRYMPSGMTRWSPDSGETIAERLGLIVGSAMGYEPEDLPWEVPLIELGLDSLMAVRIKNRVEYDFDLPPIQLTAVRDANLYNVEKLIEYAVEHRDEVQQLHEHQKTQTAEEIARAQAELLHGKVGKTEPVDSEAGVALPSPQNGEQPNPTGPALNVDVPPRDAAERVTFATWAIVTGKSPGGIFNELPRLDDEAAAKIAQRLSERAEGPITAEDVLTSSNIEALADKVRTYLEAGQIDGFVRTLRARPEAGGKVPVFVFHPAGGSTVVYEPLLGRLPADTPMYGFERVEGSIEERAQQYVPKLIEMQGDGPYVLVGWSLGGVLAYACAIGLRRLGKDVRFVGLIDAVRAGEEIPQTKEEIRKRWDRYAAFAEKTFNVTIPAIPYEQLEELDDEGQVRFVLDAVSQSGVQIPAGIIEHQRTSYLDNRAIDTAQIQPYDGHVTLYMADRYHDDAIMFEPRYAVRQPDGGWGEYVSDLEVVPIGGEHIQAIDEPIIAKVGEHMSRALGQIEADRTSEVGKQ
UniProt Q4DA54, 1-478: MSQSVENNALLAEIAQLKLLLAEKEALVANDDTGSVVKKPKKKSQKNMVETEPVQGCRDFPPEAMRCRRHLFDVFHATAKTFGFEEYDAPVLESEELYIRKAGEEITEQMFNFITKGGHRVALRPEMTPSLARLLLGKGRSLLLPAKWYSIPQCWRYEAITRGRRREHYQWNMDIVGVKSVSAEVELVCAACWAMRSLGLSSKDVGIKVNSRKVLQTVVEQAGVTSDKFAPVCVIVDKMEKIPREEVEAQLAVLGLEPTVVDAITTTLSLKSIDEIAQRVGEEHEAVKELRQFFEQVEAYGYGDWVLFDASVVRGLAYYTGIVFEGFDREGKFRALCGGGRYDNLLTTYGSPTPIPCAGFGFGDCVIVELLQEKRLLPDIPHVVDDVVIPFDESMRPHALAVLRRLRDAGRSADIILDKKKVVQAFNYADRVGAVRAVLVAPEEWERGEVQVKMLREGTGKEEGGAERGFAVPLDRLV

The values are deposited in ChEMBL (CHEMBL3988442, “University of Dundee, Small-Polar-MMV Screening Library” (2021)).

Pks13 thioesterase: 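Polyketide synthase Pks13, Mycobacterium tuberculosis (UniProt I6X8D2). Enzyme assay of the thioesterase domain of polyketide synthase 13; the read-out is not stated. Concentration: 30 µM. The record gives no direction; the compounds picked for IC50 retests had high values, so higher reads as stronger inhibition. Size under these conditions: about 67,000 compounds, about 300 of them at 50% or above in at least one test.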
TcHisRS: 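Enzyme assay of histidyl-tRNA synthetase; the read-out is not stated. Target: Histidine-tRNA ligase, Trypanosoma cruzi CL Brener (UniProt Q4DA54). Tested at 30 µM. Direction is inferred from retests: higher values go with stronger inhibition. Size under these conditions: about 69,000 compounds, about 31 of them at 50% or above in at least one test.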

Values are the deposited “Percent Effect”, in %. The controls that fix the scale are not given in the record; negative values are as filed. This is an unselected part of the compounds tested. A dash means the value is not listed here; it may have been measured.

compound | Pks13 thioesterase | TcHisRS
CCN(CC)S(=O)(=O)N1CCCC(c2ccc(C(=O)O)cc2)C1 (stereo not shown) | -4.999 | 3.333
Cc1ccc(C(CC(=O)O)NC(=O)CCc2cccs2)cc1 (stereo not shown) | -24.69 | -1.754
CN1CCN(c2ccc(CO)cc2F)CC1 | -33.08 | 3.448
CC1(CO)COC(Cc2ccc(Cl)cc2)=N1 (stereo not shown) | -17.22 | 1.554
CCc1cc(C(=O)N2CCc3c(ncn3CCc3ccccc3)C2)[nH]n1 | 19.8 | 7.514
CC(C)c1ccc(C2CC(=O)Nc3c2cnn3C)cc1 (stereo not shown) | 7.691 | -1.205
CCOCC(O)CN1CCN(C(=O)c2cc(C)ccc2OC)CC1 (stereo not shown) | -8.719 | 5.714
COc1ccccc1CC1CCCN1C(=O)c1cn[nH]c1C (stereo not shown) | -36.77 | 9.091
N[C@@H]1c2ccccc2C2(CCN(C(=O)c3cncc(Cl)c3)CC2)[C@H]1O | -3.736 | 0.8333
CN(C)C(=O)CNC(=O)c1nc(C2CC2)n(-c2ccccc2Cl)n1 | -22.65 | 5.208
Cc1cc(-c2cnc(C(C)C)nc2CN(C)C(=O)c2ccccn2)on1 | 2.021 | 3.042
CC(O)CCN(C)C(=O)Nc1cc(F)cc(Br)c1 (stereo not shown) | -9.957 | 2.083
CCc1nccc(CN2CCCC(CNC(=O)c3ccccn3)C2)n1 (stereo not shown) | 4.732 | 1.508
Cc1cccc(CO[C@@H]2CO[C@@]3(CCN(S(=O)(=O)N(C)C)C3)C2)n1 | -29.48 | 10.34
Cc1ccc(CN2CCc3ncnc(OC(C)C)c3CC2)s1 | -32.9 | 5.473
CC(CO)NC(=O)c1ccc2[nH]/c(=N\S(C)(=O)=O)sc2c1 (stereo not shown) | 9.742 | 2.97
O=C(CCO)N1CCC2(CCc3ccc(-c4ccoc4)cc32)CC1 | -29.06 | 3.797
CNC(=O)[C@@H]1CC[C@@H]2[C@@H](CCN2Cc2ccccc2F)O1 | -8.442 | 8.046
Nc1nc(CN2CCOC(Cn3cncn3)C2)nc2ccccc12 (stereo not shown) | -7.392 | 4.215
c1ccc(CNc2ncc(CN3CCCN4CCC[C@H]4C3)cn2)cc1 | -13.34 | 48.15
Cc1nnc2n1CCN(Cc1c(Cl)ccc3cccnc13)C2 | -3.398 | 3.922
CCN(CC1CCCN(CCc2cccc(OC)c2)C1)C(=O)CCSC (stereo not shown) | -23.26 | 7.447
O=C(Nc1ccc2c(ccn2CCN2CCOCC2)c1)c1ccncc1 | -3.287 | 8.407
CN(CCc1nc2ccccc2c(=O)[nH]1)CCC(F)(F)F | -38.98 | 4.712
COc1cc(C(C)=O)ccc1OCC(=O)N(Cc1ccsc1)C1CC1 | -2.06 | 2.062
CSCc1noc(CNC2CCCC(C)(C)C2)n1 (stereo not shown) | - | 0.8
CN(Cc1ccccc1)C1COC2(CCN(Cc3nccs3)CC2)C1 (stereo not shown) | -11.68 | 5.946
O=C(c1ccc(-n2cnnc2)cc1)N1CCC(Nc2cccnn2)CC1 | -10.35 | 0.5747
CCNc1ncc(C(=O)N(C)CCc2nc3cc(Cl)ccc3[nH]2)cn1 | -35.2 | 1.149
CCOc1cc(F)ccc1NC(=O)N(C)Cc1cnn(C)c1 | -0.2611 | 2.616
COCc1ccc(C(=O)N2CCCN(C(=O)OCC(C)C)CC2)cc1 | 5.879 | 8.929
Cc1[nH]ncc1CCCNC(=O)Nc1ccc2c(c1)OC1(CCCC1)O2 | -9.976 | 0.9852
CN(C)c1nc(N)nc(CN2CCCC(c3ccccc3)CC2)n1 (stereo not shown) | -10.03 | 38.27
CN(C(=O)c1ccc(Cl)c(S(C)(=O)=O)c1)c1ccccc1 | -36.08 | 4.444
O=C(CC1CCCC1)N1C[C@@H]2CN(Cc3ccoc3)CCO[C@@H]2C1 | - | 3.061
Cc1noc(C)c1C(=O)NCc1ccc(N2CCOCC2)nc1 | -15.83 | 3.955
CCNC(=O)c1cn(C(C)(C)C)c2ncccc12 | 10.67 | 7.955
Cn1cc(CNCCOc2ccc(F)c(F)c2)c(-c2cccnc2)n1 | -9.921 | 0
Cc1ccc(Oc2ncccc2CNC2CCCCC2)cn1 | -35.26 | -1.163
c1cnc2[nH]c(C3CCCC3)c(CN3CCCCC3)c2c1 | - | -11.7
Cc1ccc(C(=O)N2CCC3(CC2)COC(COc2cccnc2)C3)o1 (stereo not shown) | -13.56 | 12.4
Cc1nc(C)c(CNCC2CCCn3ccnc32)s1 (stereo not shown) | 7.64 | 1.676
CC(=O)N1CCN(CC=C(C)C)CC1 | -10.54 | 4.972
O=C(O)CCc1cccc(C2CCCN2Cc2cccc(Cl)c2)n1 (stereo not shown) | -10.17 | 6.383
O=C(c1cnccn1)N1CC2(CCN(Cc3ccsc3)C2)C1 | -16.68 | 7.619
CCOCCNC(=O)c1cccnc1N1CCCC1c1ccccn1 (stereo not shown) | 12.34 | 0
Cc1noc(C)c1CS(=O)(=O)CC(=O)N1c2ccccc2CC1C (stereo not shown) | -27.84 | 1.587
Cc1[nH]ccc1C(=O)N1CCN(C)C2(CCC(=O)N(C)CC2)C1 (stereo not shown) | -12.94 | 0.4975
COCCN1CCCC(Cc2cnc(-c3c(C)nn(C)c3C)cn2)C1 (stereo not shown) | -0.8617 | 10.15
Cc1ccc(OCC2CCCN(C(=O)CN3CCOCC3)C2)cc1 (stereo not shown) | 1.026 | 4.706
CN1CCN(C[C@H]2OC[C@@H]3CCN(Cc4ccsc4)C[C@@H]32)CC1 | -6.643 | 4.673
O=C(c1cscn1)N1CCO[C@H]2[C@@H](Oc3ccccn3)CC[C@@H]21 | 5.413 | -4.082
CC1CN(C)CCN1Cc1cccc(C(=O)N(C)C)c1 (stereo not shown) | -15.01 | 6.215
O=C(NCCc1nnc2n1CCC2)NC1(c2cccc(F)c2)CC1 | -20.21 | 3.261
COc1ccc(C(C)(C)C(=O)NCc2n[nH]c(=O)[nH]2)cc1 | -33.91 | 9.091
F[C@@H]1CN(Cc2nccs2)C[C@@H]1OCc1nc2cnccc2[nH]1 | -16.53 | -3.483
CC(C(=O)NCc1ccnc(N2CCCC2)c1)n1cccn1 (stereo not shown) | -7.844 | 4.734
c1ccc(-c2nc(CN3CCCCC3Cn3cncn3)co2)cc1 (stereo not shown) | -4.451 | 6.916
CNc1nc2c(c(C(=O)N3CCCC3)n1)CN(C(=O)C1CCCC1)CC2 | -5.101 | 6.03
Cc1ccc(-c2noc(CN3CCC(N4CCNC4=O)CC3)n2)cc1 | -11.5 | 4.023
CC(C)c1ncc2c(n1)CN(Cc1cccc(C#N)c1)CC2 | -4.496 | 6.464
CCn1nc(C)c(CCn2ccnc2-c2cc3n(n2)CCNC3)c1C | -12.73 | 8.743
Cc1nn(C)c(N2CCOCC2)c1CNCc1ccc(C(C)O)cc1 (stereo not shown) | -4.3 | 2.624
Cc1cnn(CCNCc2ccc(OCc3noc(C)n3)cc2)c1 | 5.441 | 11.67
COCCN1C(=O)CC[C@]12CC[C@@H](NCc1nccs1)CC2 | -21.88 | 3.226
Cc1nc(CN2CCCC(N(C)CCOCC(F)(F)F)C2)no1 (stereo not shown) | -6.895 | 2.339

The last 7 entries again:

{"compound": "Cc1ccc(-c2noc(CN3CCC(N4CCNC4=O)CC3)n2)cc1", "Pks13 thioesterase": -11.5, "TcHisRS": 4.023}
{"compound": "CC(C)c1ncc2c(n1)CN(Cc1cccc(C#N)c1)CC2", "Pks13 thioesterase": -4.496, "TcHisRS": 6.464}
{"compound": "CCn1nc(C)c(CCn2ccnc2-c2cc3n(n2)CCNC3)c1C", "Pks13 thioesterase": -12.73, "TcHisRS": 8.743}
{"compound": "Cc1nn(C)c(N2CCOCC2)c1CNCc1ccc(C(C)O)cc1", "stereo": "stereo not shown", "Pks13 thioesterase": -4.3, "TcHisRS": 2.624}
{"compound": "Cc1cnn(CCNCc2ccc(OCc3noc(C)n3)cc2)c1", "Pks13 thioesterase": 5.441, "TcHisRS": 11.67}
{"compound": "COCCN1C(=O)CC[C@]12CC[C@@H](NCc1nccs1)CC2", "Pks13 thioesterase": -21.88, "TcHisRS": 3.226}
{"compound": "Cc1nc(CN2CCCC(N(C)CCOCC(F)(F)F)C2)no1", "stereo": "stereo not shown", "Pks13 thioesterase": -6.895, "TcHisRS": 2.339}